# Experimental data reported in PubChem BioAssay AID662 (National Center for Advancing Translational Sciences (NCATS), 2007).
# Some of the results follow. Further columns of the screen follow, without active or inactive calls. The list favours compounds with an active or inconclusive main result. Words in brackets tell the shape of the fitted curve; partial curves, single points and poor fits give uncertain potencies.
# Assay: Cell signaling CRE-BLA (Fsk stim)
# Details: CHO CRE-bla reporter (cAMP response element driving beta-lactamase), forskolin EC10, beta-lactamase ratio; measured here: 460 nm blue channel
# In short: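 Cells were plated overnight at 37 °C, exposed to compound titrations plus EC10 NKH 477 for 3 h, then given CCF4 dye for 2 h at room temperature. Blue/green (460/530 nm) ratio was converted to %Activity and AC50 values calculated.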
row,Structure (SMILES),AC50
1,Cn1nnnc1Sc1ncnc2scc(-c3ccc(F)cc3)c12,"6.31 µM [rising, partial curve]"
2,C(=N\n1cnnc1)/c1cn(Cc2ccccc2)c2ccccc12,"10 µM [rising, single point]"
3,COCCNc1ncnc2ccc(-c3c(C)noc3C)cc12,"5.01 µM [rising, partial curve]"
4,CCCn1c(=O)c(C(=O)Nc2nnc(C)s2)c(O)c2ccccc21,"12.6 µM [falling, single point]"
5,COCCNC(=O)CN(c1ccccc1OC)S(C)(=O)=O,"2.51 µM [falling, partial curve]"
6,Cc1nc(-c2ccccc2)cc(N2CCCC2)n1,"0.126 µM [rising, full curve]"
7,CCCCc1n[nH]c2c1/C(=N/O)CC(c1ccccc1)C2 (centres undefined),"0.126 µM [falling, partial curve]"
8,COC(=O)Cc1c(C)c2cc(Cl)c(OC(=O)c3ccco3)cc2oc1=O,"15.8 µM [rising, partial curve]"
9,c1ccc2nc3c(nc2c1)[nH]c1ccccc13,"5.01 µM [rising, partial curve]"
10,O=C(Nc1ccc(S(=O)(=O)N2CCOCC2)cc1)c1ccc(Cl)s1,"15.8 µM [rising, single point]"
11,COc1ccc(C(O)P(=O)(OC2CCCCC2)c2ccc(N(C)C)cc2)cc1OC (centres undefined),"0.794 µM [falling, partial curve]"
12,Cc1ccccc1-c1nc(CN2CCC(C(=O)NCCC3=CCCCC3)CC2)c(C)o1,"10 µM [falling, partial curve]"
13,COc1ccc(C)cc1NC(=O)CN1CCN(c2ccccc2F)CC1,"0.2 µM [falling, full curve, poor fit]"
14,CCOCC(=O)Nc1nnc(Cc2ccc(OC)c(OC)c2)s1,"12.6 µM [rising, single point]"
15,c1ccc2c(NC3CC3)nc(-c3ccoc3)nc2c1,"3.98 µM [rising, full curve, poor fit]"
16,Cn1c(=O)c(-c2cccc(Cl)c2)nc2cncnc21,"10 µM [rising, partial curve]"
17,COc1ccc(CCNC(=O)CN2C(=O)C3(OCCCO3)c3ccccc32)cc1OC,"3.98 µM [falling, full curve]"
18,Cc1c(NC(=O)CC2CC(C)OC2=O)c(=O)n(-c2ccccc2)n1C (centres undefined),"1.58 µM [rising, partial curve]"
19,CC(C)c1nnc(NC(=O)C2CCN(c3nc4ccccc4s3)CC2)s1,"5.01 µM [rising, single point]"
20,Cc1onc(-c2c(F)cccc2Cl)c1C(=O)Nc1nnc(C2CC2)s1,"0.0251 µM [falling, full curve, poor fit]"
21,COc1ccc(-c2nc(CSCC(=O)NCc3ccc4c(c3)OCO4)c(C)o2)cc1OC,"5.01 µM [rising, partial curve]"
22,CCc1ccccc1-n1c(SCC(=O)Nc2ccc3c(c2)OCCO3)nc2[nH]ncc2c1=O,"2 µM [rising, partial curve, poor fit]"

# Some of the entries so far, tab-delimited.
row	Structure (SMILES)	AC50
7	CCCCc1n[nH]c2c1/C(=N/O)CC(c1ccccc1)C2 (centres undefined)	0.126 µM [falling, partial curve]
8	COC(=O)Cc1c(C)c2cc(Cl)c(OC(=O)c3ccco3)cc2oc1=O	15.8 µM [rising, partial curve]
9	c1ccc2nc3c(nc2c1)[nH]c1ccccc13	5.01 µM [rising, partial curve]

# Remaining list, next part

row,Structure (SMILES),AC50
1,COc1cc(NC(=O)c2cc(-c3cccs3)on2)cc(OC)c1OC,"1.26 µM [rising, partial curve]"
2,CCOc1ncccc1C(=O)Oc1ccc2c(c1)OCO2,"3.98 µM [falling, partial curve, poor fit]"
3,CCOC(=O)N1CCC(N2C(=O)c3ccccc3C2Nc2cc(Cl)c(OC)cc2OC)CC1 (centres undefined),"10 µM [rising, partial curve]"
4,CN(C)c1ccc(Nc2nc(-c3cccnc3)cs2)cc1,"0.00398 µM [falling, full curve]"
5,C=CCn1c(SCC(=O)NCCCC)nc2scc(-c3ccco3)c2c1=O,"0.251 µM [falling, full curve]"
6,CCC(=O)c1ccccc1OCCSc1nc(C)cc(=O)[nH]1,"12.6 µM [rising, partial curve]"
7,COc1cc(-c2nc(S(=O)(=O)c3ccc(Cl)cc3)c(N(C)C)o2)cc(OC)c1OC,"3.16 µM [rising, partial curve]"
8,COc1ccc(C(=O)Nc2nc3ccccc3[nH]2)cc1OC,"6.31 µM [rising, partial curve]"
9,Cc1noc(C)c1-c1nc(N2CCN(C)CC2)c2ccccc2n1,"12.6 µM [rising, partial curve]"
10,CN(c1nc2ccccc2n2c(-c3ccco3)nnc12)S(=O)(=O)c1ccccc1,"31.6 µM [falling, single point]"
11,O=C1CC(C(=O)Nc2ncccn2)C(c2ccccc2)O1 (centres undefined),"10 µM [falling, partial curve]"
12,Cc1nc2cnc(N(C)C)nc2n(C[C@H]2CCCO2)c1=O,"12.6 µM [rising, partial curve]"
13,COCCN1C(=O)C(CC(=O)Nc2ccc(C(=O)O)cc2)SC1=Nc1ccccc1 (centres undefined),"10 µM [rising, partial curve, poor fit]"
14,COc1nc(OCCNC(=O)Nc2ccccc2)nc(N(C)C)n1,"12.6 µM [rising, single point]"
15,CC(=O)c1cccc(NC(=O)Cc2cccs2)c1,"0.316 µM [falling, partial curve]"
16,COc1ccc(NC(=O)CSc2[nH]c(=O)cc(C)c2C#N)cc1OC,"10 µM [rising, partial curve]"
17,O=C(NCc1ccco1)c1cc2c(s1)CCCCC2,"12.6 µM [falling, single point]"
18,Cn1c(=O)c(-c2cccs2)nc2cnc(OCc3ccccc3)nc21,"15.8 µM [rising, partial curve]"
19,Cc1ccc(NC(=O)C2C(=O)N(CCO)C3(C)CC2c2ccccc2O3)cc1 (centres undefined),"0.398 µM [falling, full curve, poor fit]"
20,CCOc1ccc(NC(=O)N(C2CCCCC2)C(C)c2ccncc2)cc1 (centres undefined),"25.1 µM [falling, single point]"
21,CN1CCN(c2ncnc3ccc(-c4ccc5c(c4)OCO5)cc23)CC1,"10 µM [rising, single point]"
22,O=c1[nH]c(NC2CCCCC2)nnc1Cc1ccccc1,"10 µM [falling, partial curve]"
